PubChem BioAssay AID445 (National Center for Advancing Translational Sciences (NCATS), 2006)
The list shows a part of the results. The main result of the screen is listed elsewhere. These columns were measured beside it and carry no call. The list favours compounds with an active or inconclusive main result. Potencies come from curve fits of mixed quality, noted in brackets.

Assay: IkB Signaling
Conditions: ABC-DLBCL IkBa-CBG/CBR dual luciferase ratio (green luciferase fused to IkBa over red control in OCI-Ly3 lymphoma cells), 4 h
Method in brief: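 Luminescence ratio of IκBα-fused green versus native red beetle luciferase in OCI-Ly3 cells, 4 h post-doxycycline with compound; red signal alone, scaled from basal (0%) to zero light (-100%), flagged nonspecific or cytotoxic effects.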

[1] = measured here: control luc red channel unless noted
[2] = measured here: IkB-luc green channel
[3] = measured here: control luc red channel

COc1ccc(C(=O)CN2CCN(S(=O)(=O)c3ccc(F)cc3)CC2)cc1
AC50 [1]: 5.01 µM [falling, full curve, poor fit]

Cc1ccc(C)c(NC(=O)CSc2c(C)cnc3c2c(=O)n(C)c(=O)n3C)c1
AC50 [1]: 25.1 µM [rising, single point]

CCOc1ccc(OCC)c(NS(=O)(=O)c2c(C)[nH]c(=O)[nH]c2=O)c1
AC50 [1]: 3.98 µM [rising, partial curve]

O=C(Cn1cnc2nc3c(cc2c1=O)CCCC3)N1CCN(c2cccc(C(F)(F)F)c2)CC1
AC50 [1]: 12.6 µM [falling, partial curve]

CCC(=O)N1c2ccccc2CC1C(=O)N1CCN(c2cccc(OC)c2)CC1 (stereo not given)
AC50 [1]: 31.6 µM [falling, partial curve]

CC(=O)c1ccc(S(=O)(=O)Nc2ccc(-c3ccc(N4CCCCC4)nn3)cc2)cc1
AC50 [1]: 25.1 µM [falling, single point]

Cc1cccc(NC(=O)CC2Nc3cccc4cccc(c34)NC2=O)c1 (stereo not given)
AC50 [1]: 10 µM [falling, partial curve]

Cc1cccc(NC(=O)CSc2nc(-c3cccc(C)c3)nc3c2Cc2c(CO)cnc(C)c2O3)c1
AC50 [1]: 12.6 µM [falling, partial curve]

Cc1ccc2c(CC(=O)Nc3cccc(C(F)(F)F)c3)coc2c1
AC50 [1]: 31.6 µM [falling, single point]

CC(C)NC(=O)NC(=O)COC(=O)Cc1ccsc1
AC50 [1]: 6.31 µM [rising, single point]

CCOC(=O)COc1ccc(/C=C(\C#N)c2nc3ccc(C)cc3[nH]2)cc1OC
AC50 [1]: 20 µM [falling, single point]

CCCCOc1ccc(C(=O)Nc2cc(-c3ccc(C)cc3)no2)cc1
AC50 [1]: 0.631 µM [falling, full curve, poor fit]

CCOC(=O)c1sc(N2C(=O)c3oc4ccccc4c(=O)c3C2c2ccc(C(C)(C)C)cc2)nc1C (stereo not given)
AC50 [1]: 25.1 µM [falling, partial curve]

Cc1oc2ncn(CC(C)C)c(=O)c2c1C(=O)NCCc1ccc(Cl)cc1
AC50 [1]: 3.16 µM [falling, single point]

NC(=O)c1cc(-c2ccccc2)nc(N2CCOCC2)n1
AC50 [1]: 7.94 µM [falling, partial curve]

O=C(COC(=O)c1ccco1)NCc1ccco1
AC50 [1]: 39.8 µM [falling, single point]

Cc1ccc(CNC(=O)c2ccc3c(c2)CCN3S(=O)(=O)c2ccccc2)cc1
AC50 [1]: 20 µM [falling, partial curve]

CCOc1ccccc1NC(=O)C1CCCN(c2ncnc3onc(-c4ccc(F)cc4)c23)C1 (stereo not given)
AC50 [1]: 39.8 µM [falling, partial curve, poor fit]

O=C(CSCc1cnn(-c2ccccc2)c1-n1cccc1)NCc1ccc2c(c1)OCO2
AC50 [1]: 15.8 µM [falling, partial curve]

COc1ccc(S(=O)(=O)N(CC(=O)N2CCN(c3ccccc3OC)CC2)c2ccccc2)cc1
AC50 [1]: 10 µM [falling, partial curve]

COc1ccc(C2C(C(=O)Nc3ccc(C)cc3C)=C(C)Nc3nc(SC)nn32)cc1OC (stereo not given)
AC50 [1]: 0.794 µM [falling, single point]

Cc1ccc(NC(=O)CSc2nnc(COc3ccc(Cl)cc3)o2)cc1
AC50 [1]: 3.98 µM [falling, full curve]

COc1ccc(S(=O)(=O)Nc2ccc3c(c2)sc(=O)n3C)cc1Cl
AC50 [1]: 31.6 µM [rising, single point] [measured here: IkB-luc green channel]

Cc1cc2c(cc1S(=O)(=O)CCC(=O)N(C)C1CCCCC1)OCC(=O)N2
AC50 [1]: 10 µM [falling, partial curve]

CN(c1ncnc2c1c(-c1ccccc1)cn2-c1cccc(Cl)c1)C1CCCCC1
AC50 [1]: 31.6 µM [falling, single point]

O=S(=O)(CCN1CCN(C(c2ccccc2)c2ccccc2)CC1)C(F)(F)F
AC50 [2]: 39.8 µM [rising, single point]
AC50 [3]: 20 µM [falling, single point]

COc1cccc(NC(=O)CCc2nc(-c3ccc(C(C)(C)C)cc3)no2)c1
AC50 [1]: 1.58 µM [falling, full curve]

Cc1cc(NC(=O)NC(=O)c2ccc(F)cc2F)n[nH]1
AC50 [1]: 3.16 µM [falling, partial curve]

COc1ccc(N2CCN(C(=O)CSc3nnc(-c4cc5ccccc5cc4O)n3C)CC2)cc1
AC50 [2]: 31.6 µM [falling, single point]
AC50 [3]: 15.8 µM [falling, partial curve]

CCc1ccc(CN(Cc2ccco2)C(=O)COc2ccccc2Cl)cc1
AC50 [1]: 31.6 µM [falling, single point]

Cc1cccc(-n2c(=O)c3c(c4cc(C)ccc4n3C)n(C)c2=O)c1
AC50 [1]: 0.316 µM [falling, full curve]

COc1ccc2c(c1)CCc1c(C(=O)Nc3cnn(Cc4ccc(Cl)cc4Cl)c3)noc1-2
AC50 [1]: 10 µM [falling, partial curve]

COc1cccc(NC(=O)CCSc2nc(-c3ccco3)cc(C(F)(F)F)n2)c1
AC50 [1]: 15.8 µM [falling, partial curve]

CCc1nn2c(=O)cc(COC(=O)c3cccc(NC(=O)COc4ccccc4)c3)nc2s1
AC50 [1]: 3.16 µM [falling, partial curve]

Cc1cc(C)cc(NC(=O)Cn2cc(C(=O)c3ccncc3)c(=O)c3cc(C)c(C)cc32)c1
AC50 [1]: 25.1 µM [falling, partial curve]

Cc1cccc(NC(=O)C2CCN(S(=O)(=O)c3ccc4[nH]c5c(c4c3)CCCCC5)CC2)c1
AC50 [1]: 39.8 µM [falling, single point]

COc1ccccc1-c1noc(-c2cccnc2)n1
AC50 [1]: 12.6 µM [falling, partial curve, poor fit]

Cc1ccccc1CN1C(=O)c2ccccc2Sc2ccc(C(=O)O)cc21
AC50 [1]: 3.16 µM [falling, partial curve]

Cc1ccc(NC(=O)C2CCCN(c3cnccn3)C2)cc1Cl (stereo not given)
AC50 [1]: 12.6 µM [falling, single point]

Cc1ccc(CS(=O)Cc2ccc(C(=O)NCc3ccccc3Cl)o2)cc1 (stereo not given)
AC50 [1]: 20 µM [falling, partial curve, poor fit]

COc1ccccc1C(=O)Nc1cccc(OCc2cc(=O)n3c(C)csc3n2)c1
AC50 [1]: 25.1 µM [falling, single point]

CC(C)c1ccc(NC(=O)C2CCN(S(=O)(=O)c3ccc(Br)s3)CC2)cc1
AC50 [1]: 7.94 µM [falling, full curve]

CN1C(=O)C(O)(CC(=O)c2ccccc2O)c2cc(Br)ccc21 (stereo not given)
AC50 [2]: 3.16 µM [rising, full curve]
AC50 [3]: 2 µM [rising, full curve]

CSc1nn(Cc2ccccc2C)c(NC(C)=O)c1S(=O)(=O)c1ccc(C)cc1
AC50 [1]: 25.1 µM [falling, partial curve]

COCCN1Cc2cccc(C(=O)Nc3ccc(C(=O)OC)cc3)c2C1=O
AC50 [1]: 1.26 µM [rising, full curve]

Cc1cc2cc(CCNS(=O)(=O)c3ccc(Br)cc3)c(=O)[nH]c2cc1C
AC50 [1]: 31.6 µM [falling, partial curve]

COc1ccccc1C(=O)Nc1ccc2nc(SCC(=O)N3CCCC3)sc2c1
AC50 [1]: 20 µM [falling, single point]

CCCCc1cc(O)c(CCCC)c(O)c1
AC50 [1]: 39.8 µM [falling, single point]

Cc1ccc(NC(=O)/C(C#N)=C\c2ccc(-c3ccc(Cl)cc3)o2)c(C)c1
AC50 [1]: 5.01 µM [rising, single point]

CCCCCn1c(=O)[nH]c2cc(C(=O)N3CCN(c4cccc(Cl)c4)CC3)ccc2c1=O
AC50 [1]: 5.01 µM [falling, single point]

CN(c1ccccc1)S(=O)(=O)c1nnc(NC(=O)c2ccco2)s1
AC50 [1]: 0.01 µM [rising, full curve]

Cc1ccc(OCC(=O)Nc2cccc(O)c2)cc1C
AC50 [1]: 7.94 µM [falling, partial curve]

Cc1ccc2nc(N(Cc3cccnc3)C(=O)c3ccco3)sc2c1
AC50 [1]: 20 µM [falling, single point]

Cc1cccc(N2CCN(C(=O)c3cn(C)c4ccc(S(=O)(=O)N(C)C)cc4c3=O)CC2C)c1 (stereo not given)
AC50 [1]: 3.16 µM [falling, single point]

CCc1nnc(SCC(=O)Nc2ccc(Cl)cc2F)c2cc3occc3n12
AC50 [1]: 5.01 µM [falling, full curve, poor fit]

CCOC(=O)Cn1c(=O)n(-c2ccccc2OC)c2nc(-c3ccccc3)nc(C(N)=O)c21
AC50 [1]: 12.6 µM [falling, partial curve]

CCc1ccc(-n2c(SCc3nc(-c4cc(OC)ccc4OC)no3)nnc2-c2ccccc2)cc1
AC50 [1]: 12.6 µM [falling, partial curve]

Cc1cc(Br)cc(C)c1NC(=O)c1cnc2ccccn2c1=O
AC50 [1]: 2 µM [rising, partial curve]

CCn1c(N2CCN(S(=O)(=O)c3ccccc3C(F)(F)F)CC2)nc2ccccc21
AC50 [1]: 31.6 µM [falling, single point]

COc1cccc(NS(=O)(=O)c2ccc3[nH]c4c(c3c2)CCCCCC4)c1
AC50 [1]: 39.8 µM [falling, single point]

COc1ccc(-c2onc(C)c2C)cc1S(=O)(=O)N1CCc2ccccc21
AC50 [1]: 39.8 µM [falling, single point]

CCOC(=O)c1ccc(NC(=O)CC2Nc3cccc4cccc(c34)NC2=O)cc1 (stereo not given)
AC50 [1]: 25.1 µM [falling, single point]
